Values quoted from earlier work in patent US9446009B2, “Methods for treating conditions of the nail unit” (Hallux, Inc., priority 2004, dated 2016).
Converted amounts (≈) assume the structure as drawn.

What was measured:
Conditions in all cases: in vitro
Trichophyton tonsurans = tested on: Trichophyton tonsurans
Trichophyton rubrum = tested on: Trichophyton rubrum
Trichophyton verrucosum = tested on: Trichophyton verrucosum
[1] = tested on: Trichophyton mentagrophytes

MIC Ranges (Trichophyton tonsurans)	MIC Ranges (Trichophyton rubrum)	MIC Ranges (Trichophyton verrucosum)	MIC Ranges [1]	SMILES
≦0.0008-2 ^ mcg/ml	<0.0008 to 2 µg/mL	4 µg/mL (≈ 9.32 µM)	0.06 to 0.5 µg/mL	Clc1ccc(CO/N=C(\Cn2ccnc2)c2ccc(Cl)cc2Cl)c(Cl)c1 [Oxiconazole]
≦0.008-0.03 mcg/ml	<0.008 to 4 µg/mL	4 µg/mL (≈ 10.1 µM)	0.016 to 0.125 µg/mL	Clc1ccc(CSC(Cn2ccnc2)c2ccc(Cl)cc2Cl)cc1 (centres unmarked) [Sulconazole]
